We go through 16 compounds from paper PMC9821907, “Synthesis and Antiprotozoal Activity of Azabicyclo-Nonane Pyrimidine Hybrids” (Molecules, 2022).

Values joined by “and” are separate entries in the source; they are usually repeats but may differ in a detail not shown here. Equal entries are not always repeated. Where two headings read alike, the source gives them in different places. Marks after values point to notes of the source that are not given here.

The subject of series [1] is P. falciparum K1. Nature of the series: In vitro microplate 3H-hypoxanthine incorporation assay against P. falciparum K1. Format: cell-based, Plasmodium falciparum. The following applies: L-6 cytotoxicity versus P. falciparum K1. The method, then: (§1) Compounds were tested for their activities against Plasmodium falciparum NF54 (sensitive to chloroquine) and Trypanosoma brucei rhodesiense STIB900, via serial dilution assays. Furthermore, selected compounds were tested against the K1 strain of Plasmodium falciparum (resistant against chloroquine, sulfadoxine and pyrimethamine). Their cytotoxicity was determined with rat skeletal myoblasts (L-6 cells).
(§2) In vitro activity against erythrocytic stages of P. falciparum was determined using a ^3H-hypoxanthine incorporation assay using the drug sensitive NF54 strain [27] or the chloroquine- and pyrimethamine-resistant K1 strain [28]. Compounds were dissolved in DMSO at 10 mg/mL and further diluted in medium before being added to parasite cultures incubated in RPMI 1640 medium without hypoxanthine, supplemented with HEPES (5.94 g/L), NaHCO3 (2.1 g/L), neomycin (100 U/mL), Albumax® (5 g/L) and washed human red cells A+ at 2.5% haematocrit (0.3% parasitaemia). Serial drug dilutions of eleven 3-fold dilution steps covering a range from 100 to 0.002 μg/mL were prepared. The 96-well plates were incubated in a humidified atmosphere at 37 °C; 4% CO2, 3% O2, 93% N2. After 48 h, 0.05 mL of ^3H-hypoxanthine (= 0.5 μCi) was added to each well of the plate. The plates were incubated for a further 24 h under the same conditions. The plates were then harvested with a Betaplate™ cell harvester (Wallac, Zurich, Switzerland), and the red blood cells transferred onto a glass fibre filter then washed with distilled water. The dried filters were inserted into a plastic foil with 10 mL of scintillation fluid, and counted in a Betaplate™ liquid scintillation counter (Wallac, Zurich, Switzerland). IC50 values were calculated from sigmoidal inhibition curves by linear regression using Microsoft Excel. Chloroquine (Sigma C6628) was used as control.

The subject of series [2] is T. brucei rhodesiense STIB900. Put plainly: In vitro microplate resazurin assay against T. brucei rhodesiense. In kind it is cell-based, Trypanosoma brucei rhodesiense. The following applies: L-6 cytotoxicity versus T. b. rhodesiense. The method, then:
as §1
Minimum essential medium (50 µL) supplemented with 25 mM HEPES, 1g/L additional glucose, 1% MEM non-essential amino acids (100×), 0.2 mM 2-mercaptoethanol, 1mM Na-pyruvate and 15% heat-inactivated horse serum was added to each well of a 96-well microtiter plate. Serial drug dilutions of eleven 3-fold dilution steps covering a range from 100 to 0.002 μg/mL were prepared. Then 4 × 10^3 bloodstream forms of T. b. rhodesiense STIB 900 in 50 µL was added to each well and the plate incubated at 37 °C under a 5 % CO2 atmosphere for 70 h. Next, 10 µL resazurin solution (resazurin, 12.5 mg in 100 mL double-distilled water) was added to each well and incubation continued for a further 2–4 h. Then the plates were read with a Spectramax Gemini XS microplate fluorometer (Molecular Devices Cooperation, Sunnyvale, CA, USA) using an excitation wave length of 536 nm and an emission wave length of 588 nm. Data were analyzed with the graphic programme Softmax Pro (Molecular Devices Cooperation, Sunnyvale, CA, USA), which calculated IC50 values by linear regression and 4-parameter logistic regression from the sigmoidal dose inhibition curves. Melarsoprol (Arsobal Sanofi-Aventis, received from WHO) was used as control.

Another series deals with P. falciparum NF54. Nature of the series: In vitro microplate 3H-hypoxanthine incorporation assay against P. falciparum NF54. In kind it is cell-based, Plasmodium falciparum. The following applies: L-6 cytotoxicity versus P. falciparum NF54. Here is the method:
as §1, §2

In series [3] the test system is P. falciparum K1. Details: method as in PMID 25746816. The following applies: L-6 cytotoxicity versus P. falciparum K1; ref [12]; cited from earlier work.
For series [4], the system named is T. brucei rhodesiense STIB900. On the set-up: method as in PMID 25746816. The following applies: L-6 cytotoxicity versus T. b. rhodesiense; ref [12]; cited from earlier work.

In the case of `Cc1cc(N2CC3C(c4ccccc4)CC(N4CCCCC4)(CC3c3ccccc3)C2)nc(N)n1` (racemic) [Compound 7], in the series with P. falciparum K1 [1], the “S.I. = IC50 (Cyt.)/IC50 (P.f.K1)” value is 103.6–155.6 and 155.6. Also, the “S.I. = IC50 (Cyt.)/IC50 (T.b.r.)” value in series [2] came out at 13.96.

`Cc1cc(N2CC3C(c4ccccc4)CC(N4CCCC4)(CC3c3ccccc3)C2)nc(N2CCCCC2)n1` (racemic) [Compound 24, rac-(7R,8R)-3-[6-methyl-2-(piperidin-1-yl)pyrimidin-4-yl]-6,9-diphenyl-1-(pyrrolidin-1-yl)-3-azabicyclo[3.2.2]nonane]: the “S.I. = IC50 (Cyt.)/IC50 (P.f.NF54)” value with P. falciparum NF54 is 16.31. Also, the “S.I. = IC50 (Cyt.)/IC50 (T.b.r.)” value in series [2] is listed as 42.63.

In the case of “1-(piperidin-1-yl)-3-azabicyclononane [Compound 3]”, the “S.I. = IC50 (Cyt.)/IC50 (P.f.K1)” value in the series with P. falciparum K1 [3] is on record as 162.9 ^d. Further, the “S.I. = IC50 (Cyt.)/IC50 (T.b.r.)” value in series [4] is recorded as 60.5 ^d.

Turning to `Nc1cc(N2CC3C(c4ccccc4)CC(N4CCCC4)(CC3c3ccccc3)C2)nc(N)n1` (racemic) [Compound 12], the “S.I. = IC50 (Cyt.)/IC50 (P.f.K1)” value in the series with P. falciparum K1 [1] is on record as 64.87. Also, the “S.I. = IC50 (Cyt.)/IC50 (T.b.r.)” value in series [2] came out at 11.76.

For the compound “5-(pyrrolidin-1-yl)-2-azabicyclononane [Compound 2]”, in series [4], the “S.I. = IC50 (Cyt.)/IC50 (T.b.r.)” value is given as 103.0 ^d.

With `Cc1cc(N2CC3C(c4ccccc4)CC(N4CCCC4)(CC3c3ccccc3)C2)nc(N)n1` (racemic) [Compound 8], the “S.I. = IC50 (Cyt.)/IC50 (P.f.NF54)” value in the series with P. falciparum NF54 is on record as 72.3. Moreover, the “S.I. = IC50 (Cyt.)/IC50 (T.b.r.)” value in series [2] is recorded as 13.91.

For `Cc1cc(N2CC3C(c4ccccc4)CC(N4CCCCC4)(CC3c3ccccc3)C2)nc(N2CCCC2)n1` (racemic) [Compound 19, rac-(7R,8R)-3-[6-methyl-2-(pyrrolidin-1-yl)pyrimidin-4-yl]-6,9-diphenyl-1-(piperidin-1-yl)-3-azabicyclo[3.2.2]nonane], the “S.I. = IC50 (Cyt.)/IC50 (P.f.NF54)” value in the series on P. falciparum NF54 amounted to 11.05. The “S.I. = IC50 (Cyt.)/IC50 (P.f.K1)” value with P. falciparum K1 [1] amounted to 84.23. For the same compound, the “S.I. = IC50 (Cyt.)/IC50 (T.b.r.)” value in series [2] was 18.49.

For the compound “5-(piperidin-1-yl)-2-azabicyclo-nonane [Compound 1]”, the “S.I. = IC50 (Cyt.)/IC50 (P.f.K1)” value in the series on P. falciparum K1 [3] was 140.2 ^d. In series [4], the “S.I. = IC50 (Cyt.)/IC50 (T.b.r.)” value is recorded as 13.70 ^d.

As to “1-(pyrrolidin-1-yl)-3-azabicyclononane [Compound 4]”, the “S.I. = IC50 (Cyt.)/IC50 (P.f.NF54)” value with P. falciparum NF54 is 1013. Besides, in the series on P. falciparum K1 [3], the “S.I. = IC50 (Cyt.)/IC50 (P.f.K1)” value is 764.8 ^d. In addition, the “S.I. = IC50 (Cyt.)/IC50 (T.b.r.)” value in series [4] is reported as 72.90 ^d.

With `Cc1cc(N2CC3C(c4ccccc4)CC(N4CCCC4)(CC3c3ccccc3)C2)nc(N2CCCC2)n1` (racemic) [Compound 20, rac-(7R,8R)-3-[6-methyl-2-(pyrrolidin-1-yl)pyrimidin-4-yl]-6,9-diphenyl-1-(pyrrolidin-1-yl)-3-azabicyclo[3.2.2]nonane], in the series on P. falciparum NF54, the “S.I. = IC50 (Cyt.)/IC50 (P.f.NF54)” value was 47.82. In addition, the “S.I. = IC50 (Cyt.)/IC50 (P.f.K1)” value in the series with P. falciparum K1 [1] was 47.95. For the same compound, the “S.I. = IC50 (Cyt.)/IC50 (T.b.r.)” value in series [2] came to 5.44.

On to `Cc1cc(N2CC3C(c4ccccc4)CC(N4CCCCC4)(CC3c3ccccc3)C2)nc(N2CCCCC2)n1` (racemic) [Compound 23, rac-(7R,8R)-3-[6-methyl-2-(piperidin-1-yl)pyrimidin-4-yl]-6,9-diphenyl-1-(piperidin-1-yl)-3-azabicyclo[3.2.2]nonane], for which the “S.I. = IC50 (Cyt.)/IC50 (P.f.NF54)” value in the series on P. falciparum NF54 is 26.33. For the same compound, in the series with P. falciparum K1 [1], the “S.I. = IC50 (Cyt.)/IC50 (P.f.K1)” value turned out to be 28.04. In series [2], the “S.I. = IC50 (Cyt.)/IC50 (T.b.r.)” value is reported as 4.73.

As for `Nc1nc(N)nc(Nc2ccc([As]3SCC(CO)S3)cc2)n1` (stereo not shown) [MEL, melarsoprol, reference compound], in series [2], the “S.I. = IC50 (Cyt.)/IC50 (T.b.r.)” value is 778.0.

Regarding `Cc1cc(N2CC3C(c4ccccc4)CC(N4CCCCC4)(CC3c3ccccc3)C2)nc(Cl)n1` (racemic) [Compound 15, rac-(7R,8R)-3-(2-chloro-6-methylpyrimidin-4-yl)-6,9-diphenyl-1-(piperidin-1-yl)-3-azabicyclo[3.2.2]nonane], the “S.I. = IC50 (Cyt.)/IC50 (P.f.NF54)” value in the series with P. falciparum NF54 was 18.23. Moreover, the “S.I. = IC50 (Cyt.)/IC50 (P.f.K1)” value in the series with P. falciparum K1 [1] was determined as 13.09. Moreover, the “S.I. = IC50 (Cyt.)/IC50 (T.b.r.)” value in series [2] was 2.86.

As to `CCN(CC)CCCC(C)Nc1ccnc2cc(Cl)ccc12` (stereo not shown) [CQ, chloroquine, reference compound], in the series on P. falciparum NF54, the “S.I. = IC50 (Cyt.)/IC50 (P.f.NF54)” value is 23313. The “S.I. = IC50 (Cyt.)/IC50 (P.f.K1)” value in the series with P. falciparum K1 [1] is listed as 558.4.

As for `Cc1cc(N2CC3C(c4ccccc4)CC(N4CCCC4)(CC3c3ccccc3)C2)nc(Cl)n1` (racemic) [Compound 16, rac-(7R,8R)-3-(2-chloro-6-methylpyrimidin-4-yl)-6,9-diphenyl-1-(pyrrolidin-1-yl)-3-azabicyclo[3.2.2]nonane], the “S.I. = IC50 (Cyt.)/IC50 (P.f.NF54)” value in the series with P. falciparum NF54 was found to be 44.63. Besides, the “S.I. = IC50 (Cyt.)/IC50 (P.f.K1)” value with P. falciparum K1 [1] was 42.97. Also, in series [2], the “S.I. = IC50 (Cyt.)/IC50 (T.b.r.)” value worked out at 2.91.

For the compound `Nc1cc(N2CC3C(c4ccccc4)CC(N4CCCCC4)(CC3c3ccccc3)C2)nc(N)n1` (racemic) [Compound 11], the “S.I. = IC50 (Cyt.)/IC50 (P.f.NF54)” value in the series with P. falciparum NF54 worked out at 188.3. In addition, the “S.I. = IC50 (Cyt.)/IC50 (P.f.K1)” value in the series on P. falciparum K1 [1] came to 49.51. The “S.I. = IC50 (Cyt.)/IC50 (T.b.r.)” value in series [2] worked out at 21.54.
